Source: PubChem BioAssay AID493014 (National Center for Advancing Translational Sciences (NCATS), 2011)
This is one part of the list. The main result of the screen is listed elsewhere. These columns were measured beside it and carry no call. Compounds called inactive in the main read-out are mostly missing here. Potencies come from curve fits of mixed quality, noted in brackets.

Assay: qHTS Assay to Find Inhibitors of Chronic Active B-Cell Receptor Signaling
Details: ABC-DLBCL IkBa-CBG/CBR reporter, luminescence ratio (green luciferase fused to IkBa over red control in TMD8 lymphoma cells), 4 h
Procedure, shortened: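 Concentration-response series (up to 46 uM) were applied to TMD8 dual-reporter cells for 4 h at 37C with doxycycline. Green/red ratio, after filter-overlap correction, defined %Activity; red signal alone was normalised to basal cells and zero luminescence.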

[1] = measured here: CBR red luminescence, cell number
[2] = measured here: IkBa-CBG green luminescence

| SMILES | AC50 [1] | AC50 [2] |
| --- | --- | --- |
| O=c1cc(N2CCc3ccccc32)[nH]c(=O)n1-c1ccccc1 | 11.6 µM [falling, partial curve, poor fit] | – |
| Cc1cc(Cl)ccc1OC(C)C(=O)NCCc1ccc2c(c1)OCCO2 (configuration not stated) | 23.1 µM [falling, single point] | – |
| CCCCCC1=CCC/C1=N\NC(=O)c1ccc2c(c1)OCO2 | 25.1 µM [falling, single point] | – |
| Cc1cc(C)c2nc(N3CCN(C(=O)c4ccco4)CC3)sc2c1 | 3.26 µM [rising, full curve, poor fit] | – |
| CN(C(=O)c1cccc(COc2ccc(Cl)cc2Cl)c1)c1ccccc1 | 0.82 µM [rising, full curve] | – |
| CCCC(=O)Nc1nnc(S(=O)(=O)N(CC(C)C)c2ccccc2)s1 | 3.55 µM [falling, single point] | – |
| COc1ccc(-c2cc3ncc(C(C)=O)c(C)n3n2)cc1 | 0.316 µM [rising, full curve, poor fit] | – |
| COc1ccccc1CCC(=O)OCC(=O)NC1CCCC1 | 29.1 µM [rising, single point] | – |
| O=C(/C=C/c1ccc2c(c1)OCO2)NCCSCc1c(Cl)cccc1Cl | 5.8 µM [falling, full curve] | – |
| COc1ccc(CNC(=O)c2ccc(-c3ccccc3)cc2)cc1 | 11.2 µM [falling, partial curve, poor fit] | – |
| Cc1cc(C)c(S(=O)(=O)NCC(=O)NCc2cc(=O)n(C)c(=O)n2C)c(C)c1 | 4.47 µM [rising, partial curve, poor fit] | – |
| Cc1c(C(=O)Nc2cccc(Cl)c2)c2ccccn2c1CCc1ccncc1 | 3.66 µM [rising, single point] | – |
| CCNC(=S)NNC(=O)c1csc(C)c1 | 8.2 µM [falling, partial curve, poor fit] | – |
| O=C(COC(=O)c1cccc(S(=O)(=O)N2CCOCC2)c1)Nc1ccc2c(c1)OCO2 | 0.708 µM [rising, full curve, poor fit] | – |
| CCOC(=O)C1=C(COC(=O)c2ccccc2[N+](=O)[O-])NC(=O)NC1C (configuration not stated) | 0.731 µM [rising, partial curve, poor fit] | – |
| CCn1ccnc1CN1CCN(CC(C)C)C(CCO)C1 (configuration not stated) | 6.31 µM [rising, single point] | – |
| [O-][n+]1c2cc(C(F)(F)F)ccc2c2n1CCN=C2c1ccc(Cl)cc1 | 7.31 µM [falling, partial curve, poor fit] | – |
| COc1cc(Br)c(-c2sc(Nc3ccccc3)n[n+]2-c2ccc(F)cc2)cc1OC | 15.8 µM [falling, single point] | – |
| Cc1[nH]c2ccccc2c1CN1CCC(Cc2ccccc2)CC1 | 35.5 µM [falling, single point] | – |
| Cc1ccc(C(=O)c2cc3c(cc2N)OCCO3)cc1 | 25.9 µM [falling, single point] | – |
| CCc1ccc(NC(=O)c2ccc(C3SCC(=O)N3CCc3ccccc3)cc2)cc1 (configuration not stated) | 29.1 µM [falling, single point] | – |

2 entries drawn at random from the list so far:

| SMILES | AC50 [1] | AC50 [2] |
| --- | --- | --- |
| CCc1ccc(NC(=O)c2ccc(C3SCC(=O)N3CCc3ccccc3)cc2)cc1 (configuration not stated) | 29.1 µM [falling, single point] | – |
| [O-][n+]1c2cc(C(F)(F)F)ccc2c2n1CCN=C2c1ccc(Cl)cc1 | 7.31 µM [falling, partial curve, poor fit] | – |

Additional records

| SMILES | AC50 [1] | AC50 [2] |
| --- | --- | --- |
| COc1ccc(C(=O)NCCSCc2ccccc2)cc1OC | 3.55 µM [falling, partial curve, poor fit] | – |
| CCOC(=O)c1sc(=S)n(C)c1NC(=O)c1cccc(Br)c1 | 12.6 µM [falling, single point] | – |
| CC1CCCCC1NC(=S)NC(=O)c1sc2ccccc2c1Cl (configuration not stated) | 0.316 µM [falling, full curve] | – |
| Cc1cc(C(=O)CCl)c(C)n1CC1COc2ccccc2O1 (configuration not stated) | 22.4 µM [falling, single point] | – |
| Cc1ccc2c(=O)n3c(nc2c1)C(Cc1ccccc1)NC(=O)c1ccc(Cl)cc1-3 (configuration not stated) | 0.461 µM [rising, full curve, poor fit] | – |
| CSc1ccc(COC(=O)c2cc([N+](=O)[O-])ccc2N2CCOCC2)cc1 | 2.31 µM [rising, full curve] | 2.91 µM [falling, partial curve] |
| O=S(=O)(c1ccccc1)N1N=C(c2ccc(Cl)cc2)CC1c1ccco1 (configuration not stated) | 25.9 µM [falling, partial curve, poor fit] | – |
| CCOC(=O)N1CCC(NC(=O)CCN2C(=O)C3C4C=CC(C4)C3C2=O)CC1 (configuration not stated) | 20.6 µM [rising, single point] | – |
| O=[N+]([O-])c1cccc(C(=Nc2ccccc2)NO)c1 | 0.461 µM [falling, full curve, poor fit] | – |
| Cc1noc(C)c1CCC(=O)N1CCCC(CCC(=O)NCc2ccccc2F)C1 (configuration not stated) | 7.08 µM [rising, partial curve, poor fit] | – |
| O=C(Nc1ncc([N+](=O)[O-])s1)C1CC(=O)N(c2ccc(F)cc2)C1 (configuration not stated) | 7.08 µM [rising, full curve, poor fit] | – |
| Cc1nc(-c2ccc(S(=O)(=O)N3CCCCCC3)cc2)cs1 | 3.16 µM [rising, full curve] | – |
| Cc1csc2ncnc(NNC(=O)c3ccc(Cl)cc3)c12 | – | 17.8 µM [falling, single point] |
| CN(C)S(=O)(=O)c1ccc(NC(=O)N2CCN(c3ccccc3Cl)CC2)cc1 | 13 µM [rising, partial curve, poor fit] | – |
| CCCCCC(=O)NC(=S)Nc1ccc(Br)cc1C | 20.6 µM [rising, single point] | – |
| CS(=O)(=O)c1cccc(C(=O)OCCCC(=O)c2ccccc2)c1 | 1.46 µM [rising, partial curve, poor fit] | – |
| C=CCNc1cc(C)oc(=O)c1C(=O)CCC | 9.2 µM [rising, partial curve, poor fit] | – |
| CCOC(=O)c1sc2c(c1C)c(=O)n(Cc1ccccc1)c(=O)n2CCN(C)C | 2.24 µM [falling, partial curve] | – |
| COC(=O)c1ccc(=O)c2nc3/c(=C/O)c(O)cc(=O)c3[nH]c12 | 20 µM [rising, partial curve, poor fit] | – |
| Cc1ccc(/C=C/C(=O)Nc2ccc(S(N)(=O)=O)cc2)o1 | 7.08 µM [falling, partial curve] | – |
